Experimental data as given in patent publication US6825001B2, “DNA molecules and protein displaying improved triazine compound degrading ability” (Regents of the University of Minnesota, priority 1997, dated 2004).
Some of these results come from one statement about several compounds together.

Assay: atrazine-degrading activity of AtzA homologs compared with wild type
Details: higher activity than the native AtzA protein
Method: Serial dilutions of the transformation reaction were plated onto LB plates containing 50 μg/ml ampicillin, the remainder of the transformation was stored in 25% glycerol and frozen at −80° C.
Environ. Microbiol., 61, 1451-1457 (1995), at a final concentration of 500 μg/ml to produce an opaque suspension of small particles in the clear agar. […] Positive colonies that most rapidly formed the largest clear zones were selected initially for further analysis. The (approximately) 40 best colonies were picked, pooled, grown in the presence of 50 μg/ml ampicillin and plasmid prepared from them.
Enzyme Kinetics. […] The reactions were stopped by boiling the reaction tubes at specific times, the addition of 500 μl acetonitrile and rapid freezing at −80° C. Thawed samples were centrifuged at 14,000 rpm for 10 minutes, the supernatants were filtered through a […] filter, and placed into crimp-seal HPLC vials. HPLC analysis was done as described above.

| Molecule | activity relative to native AtzA protein |
| --- | --- |
| A7: AtzA homolog, gene SEQ ID NO:3, protein SEQ ID NO:5 (protein) ASMVTLTPLFSFSLLNCTRKASRSVMSASSWLVTCGMTTQLRCRFFDGIISALRRVTHYWRHIMQTLSIQHGTLVTMDQYRRVLGDSWVHVQDGRIVALGVHAESVPPPADRVIDARGKVVLPGFINAHTHVNQILLRGGPSHGRQFYDWLFNVVYPGQKAMRPEDVAVAVRLYCAEAVRSGITTINENADSAIYPGNIEAAMAVYGEVGVRVVYARMFFDRMDGRIQGYVDALKARSPQVELCSIMEGTAVAKDRITALSDQYHGTAGGRISVWPAPATTTAVTVEGMRWAQAFARDRAVMWTLHMAESDHDERIHGMSPAEYMECYGLLDERLQVAHCVYFDRKDVRLLHRHNVKVASQVVSNAYLGSGVAPVPEMVERGMAVGIGTDNGNSNDSVNMIGDMKFMAHIHRAVHRDADVLTPEKILEMATIDGARSLGMDHEIGSIETGKRADLILLDLRHPQTTPHHHLAATIVFQAYGNEVDTVLIDGNVVMENRRLSFLPPERELAFLEEAQSRATAILQRANMVANPAWRSLEMTPLLHPPPLEEIAAILARLGLGGGHDLDGYRIAMNAALPSFARVESLVGEGRLRAPASRRSE | ≥ 10 fold |
| T7: AtzA homolog, gene SEQ ID NO:4, protein SEQ ID NO:6 (protein) SAATAALIMKASMVTLTPLFSFSLLNCTRKASRSVMSASSWLVTCGMTTQLRCRFFDGVISALRRVTHYWRHIMQTLSIQHGTLVTMDQYRRVLGDSWVHVQDGRIVALGVHAESVPPPADRVIDARGKVVLPGFINAHTHVNQILLRGGPSHGRQFYDWLFNVVYPGQKAMRPEDVAVAVRLYCAEAVRSGITTINENADSAIYPGNIEAAMAVYGEVGVRVVYARMFFDRMDGRIQGYVDALKARSPQVELCSIMEETAVAKDRITALSDQYHGTAGGRISVWPAPATTTAVTVEGMRWAQAFARDRAVMWTLHMAESDHDERIHGMSPADYMECYGLLDERLQVAHCVYFDRKDVRLLHRHNVKVASQVVSNAYLGSGVAPVPEMVERGMAVGIGTDNGNSNDSVNMIGDMKFMAHIHRAVHRDADVLTPEKILEMATIDGARSLGMDHEIGSIETGKRADLILLDLRHPQTTPHHHLAATIVFQAYGNEVDTVLIDGNVVMENRRLSFLPPERELAFLEEAQSRATAILQRANMVANPAWRSLEMTPLLHPPPLEEIAAILARLGLGGGHDLDGYRIAMNAALPSFARVESLVGEGRLRAPASRRSERPE | ≥ 10 fold |
